These results are taken from paper PMC8423306, “Coordinated action of multiple transporters in the acquisition of essential cationic amino acids by the intracellular parasite Toxoplasma gondii” (PLoS Pathogens, 2021).

The target in this experiment is T1, TgApiAT6-1 (Toxoplasma gondii, UniProt A0A125YQS6).
T1 sequence (A0A125YQS6 1-566): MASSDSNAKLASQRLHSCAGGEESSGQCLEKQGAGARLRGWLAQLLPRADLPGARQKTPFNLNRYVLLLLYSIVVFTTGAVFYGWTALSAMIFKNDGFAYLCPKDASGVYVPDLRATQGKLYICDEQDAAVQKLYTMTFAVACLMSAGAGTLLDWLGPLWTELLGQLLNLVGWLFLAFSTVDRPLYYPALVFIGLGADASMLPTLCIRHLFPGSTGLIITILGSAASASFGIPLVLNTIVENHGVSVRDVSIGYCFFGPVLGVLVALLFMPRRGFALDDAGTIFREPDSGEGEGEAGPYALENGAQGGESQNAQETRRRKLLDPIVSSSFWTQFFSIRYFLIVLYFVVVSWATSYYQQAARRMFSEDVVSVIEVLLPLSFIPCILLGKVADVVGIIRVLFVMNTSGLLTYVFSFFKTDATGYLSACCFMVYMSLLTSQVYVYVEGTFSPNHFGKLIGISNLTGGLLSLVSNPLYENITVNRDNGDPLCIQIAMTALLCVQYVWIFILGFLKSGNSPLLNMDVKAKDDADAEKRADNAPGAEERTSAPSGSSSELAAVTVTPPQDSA
Also noted: gene ApiAT6-1.

`NCCC[C@H](N)C(=O)O` [Or, ornithine]: the “trans-stimulation of [14C]Arg efflux and uptake in Xenopus oocytes” value was “observed in the presence of several cationic amino acids (e.g. Arg, His, Orn)”.
